Laboratory results as given in ChEMBL document CHEMBL5674883, “The Heterochromatin Landscape in Migrating Cells and the Importance of H3K27me3 for Associated Transcriptome Alterations” (Cells, 2018).
The source gives many values for each of these; only a part stands here.

Chains of the proteins cited; added tags and fusions are not shown.
UniProt Q61188, whole entry: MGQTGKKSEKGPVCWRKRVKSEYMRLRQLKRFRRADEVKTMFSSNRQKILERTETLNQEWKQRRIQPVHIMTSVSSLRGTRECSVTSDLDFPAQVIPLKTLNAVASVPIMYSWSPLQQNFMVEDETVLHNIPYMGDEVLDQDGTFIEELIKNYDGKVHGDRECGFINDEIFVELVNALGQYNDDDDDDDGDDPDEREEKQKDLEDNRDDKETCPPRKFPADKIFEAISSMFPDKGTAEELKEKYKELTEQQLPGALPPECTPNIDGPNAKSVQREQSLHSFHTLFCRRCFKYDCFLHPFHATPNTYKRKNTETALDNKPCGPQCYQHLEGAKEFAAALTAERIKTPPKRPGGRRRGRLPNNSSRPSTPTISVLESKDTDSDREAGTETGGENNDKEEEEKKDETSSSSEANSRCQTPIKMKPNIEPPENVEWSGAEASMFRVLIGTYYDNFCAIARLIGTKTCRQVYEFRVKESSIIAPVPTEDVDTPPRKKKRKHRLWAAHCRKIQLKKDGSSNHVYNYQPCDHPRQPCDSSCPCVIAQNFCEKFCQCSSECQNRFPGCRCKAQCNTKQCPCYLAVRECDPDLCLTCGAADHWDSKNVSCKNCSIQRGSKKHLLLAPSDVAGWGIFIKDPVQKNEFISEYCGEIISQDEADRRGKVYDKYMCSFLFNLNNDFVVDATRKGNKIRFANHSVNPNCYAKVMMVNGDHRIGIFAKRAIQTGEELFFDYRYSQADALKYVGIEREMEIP

Legend:
Type in all cases: cell-based
[1] = target: Histone-lysine N-methyltransferase EZH2 (Mus musculus) (UniProt Q61188); test: Inhibition of EZH2 in mouse B16-F1 migrating cells assessed as fold change in H3K27me3-buffered regulated Esf1-mRNA expression at 3 uM measured by ChIP-seq analysis relative to control cells
[2] = target: Histone-lysine N-methyltransferase EZH2 (Mus musculus) (UniProt Q61188); test: Inhibition of EZH2 in mouse B16-F1 migrating cells assessed as fold change in H3K27me3-buffered regulated Frmd6-mRNA expression at 3 uM measured by ChIP-seq analysis relative to control cells
[3] = target: Histone-lysine N-methyltransferase EZH2 (Mus musculus) (UniProt Q61188); test: Inhibition of EZH2 in mouse B16-F1 migrating cells assessed as fold change in H3K27me3-independent regulated Bsg-mRNA expression at 3 uM measured by ChIP-seq analysis relative to control cells
[4] = target: Histone-lysine N-methyltransferase EZH2 (Mus musculus) (UniProt Q61188); test: Inhibition of EZH2 in mouse B16-F1 migrating cells assessed as fold change in H3K27me3-buffered regulated Pink1-mRNA expression at 3 uM measured by ChIP-seq analysis relative to control cells
[5] = target: Histone-lysine N-methyltransferase EZH2 (Mus musculus) (UniProt Q61188); test: Inhibition of EZH2 in mouse B16-F1 migrating cells assessed as fold change in H3K27me3-buffered regulated Fdft1-mRNA expression at 3 uM measured by ChIP-seq analysis relative to control cells
[6] = target: Histone-lysine N-methyltransferase EZH2 (Mus musculus) (UniProt Q61188); test: Inhibition of EZH2 in mouse B16-F1 migrating cells assessed as fold change in H3K27me3-buffered regulated Dse-mRNA expression at 3 uM measured by ChIP-seq analysis relative to control cells
[7] = target: Histone-lysine N-methyltransferase EZH2 (Mus musculus) (UniProt Q61188); test: Inhibition of EZH2 in mouse B16-F1 migrating cells assessed as fold change in H3K27me3-buffered regulated Phldb2-mRNA expression at 3 uM measured by ChIP-seq analysis relative to control cells
[8] = target: Histone-lysine N-methyltransferase EZH2 (Mus musculus) (UniProt Q61188); test: Inhibition of EZH2 in mouse B16-F1 migrating cells assessed as fold change in H3K27me3-dependent regulated Gpr37-mRNA expression at 3 uM measured by ChIP-seq analysis relative to control cells
[9] = target: Histone-lysine N-methyltransferase EZH2 (Mus musculus) (UniProt Q61188); test: Inhibition of EZH2 in mouse B16-F1 migrating cells assessed as fold change in H3K27me3-buffered regulated Itgb3-mRNA expression at 3 uM measured by ChIP-seq analysis relative to control cells
[10] = target: Histone-lysine N-methyltransferase EZH2 (Mus musculus) (UniProt Q61188); test: Inhibition of EZH2 in mouse B16-F1 migrating cells assessed as fold change in H3K27me3-buffered regulated Cdkn1b-mRNA expression at 3 uM measured by ChIP-seq analysis relative to control cells
[11] = target: Histone-lysine N-methyltransferase EZH2 (Mus musculus) (UniProt Q61188); test: Inhibition of EZH2 in mouse B16-F1 migrating cells assessed as fold change in H3K27me3-buffered regulated Gm16062-mRNA expression at 3 uM measured by ChIP-seq analysis relative to control cells
[12] = target: Histone-lysine N-methyltransferase EZH2 (Mus musculus) (UniProt Q61188); test: Inhibition of EZH2 in mouse B16-F1 migrating cells assessed as fold change in H3K27me3-buffered regulated Zfp276-mRNA expression at 3 uM measured by ChIP-seq analysis relative to control cells
[13] = target: Histone-lysine N-methyltransferase EZH2 (Mus musculus) (UniProt Q61188); test: Inhibition of EZH2 in mouse B16-F1 migrating cells assessed as fold change in H3K27me3-buffered regulated Snhg1-mRNA expression at 3 uM measured by ChIP-seq analysis relative to control cells
[14] = target: Histone-lysine N-methyltransferase EZH2 (Mus musculus) (UniProt Q61188); test: Inhibition of EZH2 in mouse B16-F1 migrating cells assessed as fold change in H3K27me3-buffered regulated Ahdc1-mRNA expression at 3 uM measured by ChIP-seq analysis relative to control cells
[15] = target: T1, RNA polymerase II (Mus musculus) (UniProt P08775+Q8CFI7+P97760+A0A3Q4L2S8+Q80UW8+P61219+P62488+Q923G2+P60898+O08740+Q63871+P62876); test: Inhibition of RNA polymerase II in mouse B16-F1 migrating cells assessed as fold change in Stag1-RNA stability at 0.1 mM measured by ChIP-seq analysis relative to control cells
[16] = target: T1, RNA polymerase II (Mus musculus); test: Inhibition of RNA polymerase II in mouse B16-F1 migrating cells assessed as fold change in Sox4-RNA stability at 0.1 mM measured by ChIP-seq analysis relative to control cells
[17] = target: T1, RNA polymerase II (Mus musculus); test: Inhibition of RNA polymerase II in mouse B16-F1 migrating cells assessed as fold change in Tom1-RNA stability at 0.1 mM measured by ChIP-seq analysis relative to control cells
[18] = target: T1, RNA polymerase II (Mus musculus); test: Inhibition of RNA polymerase II in mouse B16-F1 migrating cells assessed as fold change in Timm13-RNA stability at 0.1 mM measured by ChIP-seq analysis relative to control cells
[19] = target: T1, RNA polymerase II (Mus musculus); test: Inhibition of RNA polymerase II in mouse B16-F1 migrating cells assessed as fold change in Emc10-RNA stability at 0.1 mM measured by ChIP-seq analysis relative to control cells
[20] = target: T1, RNA polymerase II (Mus musculus); test: Inhibition of RNA polymerase II in mouse B16-F1 migrating cells assessed as fold change in Ccdc34-RNA stability at 0.1 mM measured by ChIP-seq analysis relative to control cells
[21] = target: T1, RNA polymerase II (Mus musculus); test: Inhibition of RNA polymerase II in mouse B16-F1 migrating cells assessed as fold change in Nt5dc1-RNA stability at 0.1 mM measured by ChIP-seq analysis relative to control cells
[22] = target: T1, RNA polymerase II (Mus musculus); test: Inhibition of RNA polymerase II in mouse B16-F1 migrating cells assessed as fold change in Palm-RNA stability at 0.1 mM measured by ChIP-seq analysis relative to control cells
[23] = target: T1, RNA polymerase II (Mus musculus); test: Inhibition of RNA polymerase II in mouse B16-F1 migrating cells assessed as fold change in Pfkp-RNA stability at 0.1 mM measured by ChIP-seq analysis relative to control cells
[24] = target: T1, RNA polymerase II (Mus musculus); test: Inhibition of RNA polymerase II in mouse B16-F1 migrating cells assessed as fold change in Ccnt1-RNA stability at 0.1 mM measured by ChIP-seq analysis relative to control cells
[25] = target: T1, RNA polymerase II (Mus musculus); test: Inhibition of RNA polymerase II in mouse B16-F1 migrating cells assessed as fold change in Hltf-RNA stability at 0.1 mM measured by ChIP-seq analysis relative to control cells
[26] = target: T1, RNA polymerase II (Mus musculus); test: Inhibition of RNA polymerase II in mouse B16-F1 migrating cells assessed as fold change in Kansl1-RNA stability at 0.1 mM measured by ChIP-seq analysis relative to control cells
[27] = target: T1, RNA polymerase II (Mus musculus); test: Inhibition of RNA polymerase II in mouse B16-F1 migrating cells assessed as fold change in Atp2c1-RNA stability at 0.1 mM measured by ChIP-seq analysis relative to control cells
[28] = target: T1, RNA polymerase II (Mus musculus); test: Inhibition of RNA polymerase II in mouse B16-F1 migrating cells assessed as fold change in Klhl29-RNA stability at 0.1 mM measured by ChIP-seq analysis relative to control cells
[29] = target: T1, RNA polymerase II (Mus musculus); test: Inhibition of RNA polymerase II in mouse B16-F1 migrating cells assessed as fold change in Pggt1b-RNA stability at 0.1 mM measured by ChIP-seq analysis relative to control cells
[30] = target: T1, RNA polymerase II (Mus musculus); test: Inhibition of RNA polymerase II in mouse B16-F1 migrating cells assessed as fold change in Obsl1-RNA stability at 0.1 mM measured by ChIP-seq analysis relative to control cells

`CCCc1cc(C)[nH]c(=O)c1CNC(=O)c1cc(-c2ccnc(N3CCN(C)CC3)c2)cc2c1cnn2C(C)C` was tested, and the log2FC [1] was -0.53, the log2FC [2] was -0.56 and the log2FC [3] was 0.53. The log2FC [4] was 0.38, the log2FC [5] was 0.46 and the log2FC [6] was -0.57. The log2FC [7] was -0.54, the log2FC [8] was -0.17 and the log2FC [9] was 0.43. It also gave a log2FC [10] of -0.43, a log2FC [11] of 0.77 and a log2FC [12] of -0.39. For the same compound, the log2FC [13] was -0.96 and the log2FC [14] was -0.71.

In the case of `OC[C@H]1O[C@@H](n2cnc3cc(Cl)c(Cl)cc32)[C@H](O)[C@@H]1O`, the log2FC [15] is reported as -0.58, the log2FC [16] is reported as -0.67 and the log2FC [17] is reported as 0.5. For the same compound, the log2FC [18] was 0.45, the log2FC [19] was 0.4 and the log2FC [20] was -0.94. It also gave a log2FC [21] of -0.5, a log2FC [22] of 0.63 and a log2FC [23] of 0.6. It also gave a log2FC [24] of -0.53, a log2FC [25] of -0.77 and a log2FC [26] of -0.56. For the same compound, the log2FC [27] was -0.46, the log2FC [28] was -0.7 and the log2FC [29] was -0.57. It also gave a log2FC [30] of 0.5.
